PMC2679210, “Dpr Acts as a Molecular Switch, Inhibiting Wnt Signaling when Unphosphorylated, but Promoting Wnt Signaling when Phosphorylated by Casein Kinase Iδ/ε” (PLoS ONE, 2009)
Results are given in words; binding and its absence hold for the method and conditions named. In cells and extracts the contact can be indirect. Some entries that bind do so weakly or less than the wild type. Tags and fused reporters may be left off the sequences shown.

Molecular target: T1, Xenopus Dapper1a (XDpr1a), Myc-tagged (Xenopus) (UniProt Q8QG92)
T1 sequence: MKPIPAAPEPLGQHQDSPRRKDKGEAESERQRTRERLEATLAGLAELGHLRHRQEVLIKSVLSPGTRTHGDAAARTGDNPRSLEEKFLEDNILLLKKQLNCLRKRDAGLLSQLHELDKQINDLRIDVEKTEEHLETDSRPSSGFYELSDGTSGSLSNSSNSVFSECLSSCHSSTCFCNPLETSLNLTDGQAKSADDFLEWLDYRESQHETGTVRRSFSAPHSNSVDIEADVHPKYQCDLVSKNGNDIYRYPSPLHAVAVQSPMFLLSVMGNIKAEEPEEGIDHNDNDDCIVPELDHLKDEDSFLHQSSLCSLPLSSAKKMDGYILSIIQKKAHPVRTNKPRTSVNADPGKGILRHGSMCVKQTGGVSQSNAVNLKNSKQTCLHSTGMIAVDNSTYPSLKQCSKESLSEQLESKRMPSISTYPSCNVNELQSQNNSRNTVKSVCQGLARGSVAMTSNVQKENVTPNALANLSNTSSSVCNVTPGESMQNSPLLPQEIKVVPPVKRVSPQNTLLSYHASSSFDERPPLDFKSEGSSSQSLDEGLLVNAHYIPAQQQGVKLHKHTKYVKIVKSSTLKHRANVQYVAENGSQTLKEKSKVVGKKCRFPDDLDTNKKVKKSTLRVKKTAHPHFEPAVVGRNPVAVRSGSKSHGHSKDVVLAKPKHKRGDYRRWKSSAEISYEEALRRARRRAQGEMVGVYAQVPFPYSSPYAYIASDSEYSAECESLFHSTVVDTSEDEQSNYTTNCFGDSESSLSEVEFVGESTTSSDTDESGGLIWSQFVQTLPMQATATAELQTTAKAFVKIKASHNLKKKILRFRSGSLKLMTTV
Assay: co-IP; in vitro coimmunoprecipitation: [35S]methionine-labeled Myc:XDpr1a immunoprecipitated with anti-Myc antibodies and protein A agarose, 2 hours at room temperature, from a reaction containing HA-tagged XDsh in the absence or presence of CKIδ; washed three times with 50 mM Tris-HCl pH 7.4, 137 mM NaCl; SDS-PAGE, autoradiography, PhosphorImager quantitation (n = 4 trials)

B1: Xenopus Dsh (XDsh), HA-tagged (protein, UniProt P51142 1-736)
chain: MAETKVIYHLDEEETPYLVKVPVPATDIRLRDFKAALGRGHAKYFFKAMDQDFGVVKEEISDDNAKLPCFNDRVVSWLASSEGSQPDSAPPAPATEVRPEPPPPVPPPIPPPPAERTSGIGDSRPPSFHPNVSGSTEQLDQDNESVISMRRDRVRRRESSEQAGVGRGVNGRTERHLSGYESSSTLLTSEIETSICDSEEDDTMSRFSSSTEQSSASRLLKRHRRRRKQRPPRLERTSSFSSVTDSTMSLNIITVTLNMEKYNFLGISIVGQSNERGDGGIYIGSIMKGGAVAADGRIEPGDMLLQVNDINFENMSNDDAVRVLRDIVHKPGPIVLTVAKCWDPSPQGYFTLPRNEPIHPIDPAAWVSHSAALSGSFPVYPGSASMSSMTSSTSVTETELSHALPPVSLFSLSVHTDLASVVKVMASPESGLEVRDRMWLKITIPNAFLGSDVVDWLYHHVEGFQDRREARKFASNLLKAGFIRHTVNKITFSEQCYYIFGDLTGCENYMTNLSLNDNDGSSGASDQDTLAPLPLPGASPWPLLPTFSYQYQAPHPYSTQPPAYHELSSYSYGMGSAGSQHSEGSRSSGSNRSDGGRGMQKDDRSGVAGVGGGDSKSGSGSESEYSTRSSIRRVGGGEAGPPSERSTSSRLPPHHPPSVHSYAAPGVPLSYNPMMLMMMPPPPLPPPGVCPPNSSVPPGAPPLVRDLASVPPELTATRQSFHMAMGNPSEFFVDVM
binding: binds
